Where a name gives a salt, the structure may show the parent alone. This is one part of the list. Plates or batches differ in their baseline, so values are only roughly comparable.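 HEK293 lines stably express B-domain-deleted factor VIII fused to Gaussia luciferase, wild type or a misfolding-prone missense mutant. Scores equal triplicate-well mean luminescence minus DMSO mean, divided by DMSO standard deviation; scores of 2 or higher are hits. Low scores may indicate reduced secretion or worse cell viability.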

This assay concerns HEK293 p.N1941S BDD-FVIII-Gluc. Put plainly: secreted FVIII-Gluc luciferase Z-score vs DMSO control; higher = more FVIII-Gluc secretion. As to conditions: 5 µM; 24 h.
With `Cc1c(C(=O)NN2CCCCC2)nn(-c2ccc(Cl)cc2Cl)c1-c1ccc(Cl)cc1`, the “secreted FVIII-Gluc luciferase Z-score” value is inactive: -0.994.

Turning to `N=C(N)NC(=O)c1nc(Cl)c(N)nc1N` [Amiloride hydrochloride (Midamor)], the “secreted FVIII-Gluc luciferase Z-score” value is inactive: 1.26.

For the compound `COc1cc2nccc(Oc3ccc(NC(=O)C4(C(=O)Nc5ccc(F)cc5)CC4)cc3)c2cc1OC` [XL-184 (Cabozantinib)], the “secreted FVIII-Gluc luciferase Z-score” value is inactive: -11.5.

On to `CC(=O)NS(=O)(=O)c1ccc(NC(=O)c2ccccc2C(=O)O)cc1` [Phthalylsulfacetamide], for which the “secreted FVIII-Gluc luciferase Z-score” value was active: 2.39.

Consider `O=c1ccn([C@@H]2O[C@H](CO)[C@@H](O)[C@H]2O)c(=O)[nH]1` [Uridine], for which the “secreted FVIII-Gluc luciferase Z-score” value is inactive: 1.33.

In the case of `C[C@@H](Oc1cc(-c2cnn(C3CCNCC3)c2)cnc1N)c1c(Cl)ccc(F)c1Cl`, the “secreted FVIII-Gluc luciferase Z-score” value is inactive: -13.9.

As for `Cc1cc(-n2c(=O)[nH]c(=O)n(C)c2=O)ccc1Oc1ccc(SC(F)(F)F)cc1` [toltrazuril], the “secreted FVIII-Gluc luciferase Z-score” value was inactive: -1.79.

Regarding `O=c1[nH]c(=O)n([C@H]2C[C@H](O)[C@@H](CO)O2)cc1F` [Floxuridine], the “secreted FVIII-Gluc luciferase Z-score” value is inactive: -3.43.

Turning to `N=C(N)NC(=N)N1CCOCC1` [Moroxydine], the “secreted FVIII-Gluc luciferase Z-score” value is inactive: -0.587.

Consider `CCCCCOC(=O)Nc1nc(=O)n([C@@H]2O[C@H](C)[C@@H](O)[C@H]2O)cc1F` [Capecitabine (Xeloda)], for which the “secreted FVIII-Gluc luciferase Z-score” value was active: 3.81.

For the compound `CCc1nc(N)nc(N)c1-c1ccc(Cl)cc1` [Pyrimethamine], the “secreted FVIII-Gluc luciferase Z-score” value was inactive: -2.15.

Take `CC[C@H]1OC(=O)[C@H](C)[C@@H](O[C@H]2C[C@@](C)(OC)[C@@H](O)[C@H](C)O2)[C@H](C)[C@@H](O[C@@H]2O[C@H](C)C[C@H](N(C)C)[C@H]2O)[C@](C)(O)C[C@@H](C)CN(C)[C@H](C)[C@@H](O)[C@]1(C)O` [Azithromycin (Zithromax)]: the “secreted FVIII-Gluc luciferase Z-score” value is inactive: -2.25.

In the case of `CCCCNc1cc(C(=O)O)cc(S(N)(=O)=O)c1Oc1ccccc1` [Bumetanide], the “secreted FVIII-Gluc luciferase Z-score” value is inactive: -6.52.

With `C#C[C@]1(O)CC[C@H]2[C@@H]3CCc4cc(O)ccc4[C@H]3CC[C@@]21C` [Ethinyl Estradiol], the “secreted FVIII-Gluc luciferase Z-score” value is inactive: -3.77.

Consider `CC1(C)S[C@@H]2[C@H](NC(=O)C(C(=O)O)c3ccccc3)C(=O)N2[C@H]1C(=O)O` (some centres undefined) [Carbenicillin disodium], for which the “secreted FVIII-Gluc luciferase Z-score” value is inactive: -1.84.

In the case of `Cc1ccc(C)c(OCCCC(C)(C)C(=O)O)c1` [Gemfibrozil (Lopid)], the “secreted FVIII-Gluc luciferase Z-score” value was inactive: -0.954.

In the case of `CO[C@H]1/C=C/O[C@@]2(C)Oc3c(C)c(O)c4c(O)c(c5c(nc6cc(C)ccn65)c4c3C2=O)NC(=O)/C(C)=C\C=C\[C@H](C)[C@H](O)[C@@H](C)[C@@H](O)[C@@H](C)[C@H](OC(C)=O)[C@@H]1C` [Rifaximin (Xifaxan)], the “secreted FVIII-Gluc luciferase Z-score” value was inactive: -1.82.

Turning to `CC(C)(Sc1cc(C(C)(C)C)c(O)c(C(C)(C)C)c1)Sc1cc(C(C)(C)C)c(O)c(C(C)(C)C)c1` [Probucol], the “secreted FVIII-Gluc luciferase Z-score” value is inactive: -1.09.

On to `C[C@H](N)[C@H](O)c1cccc(O)c1` [Metaraminol Bitartrate], for which the “secreted FVIII-Gluc luciferase Z-score” value was inactive: -0.615.

In the case of `CCOC(=O)[C@H](CCc1ccccc1)N[C@@H](C)C(=O)N1Cc2cc(OC)c(OC)cc2C[C@H]1C(=O)O` [Moexipril HCl], the “secreted FVIII-Gluc luciferase Z-score” value is inactive: 0.0615.

Turning to `Nc1nc(N)c2nc(-c3ccccc3)c(N)nc2n1` [triamterene], the “secreted FVIII-Gluc luciferase Z-score” value was inactive: -0.212.

Turning to `CNC[C@H](O)c1ccc(O)c(O)c1` [Epinephrine bitartrate (Adrenalinium)], the “secreted FVIII-Gluc luciferase Z-score” value was inactive: -1.95.

Take `OC(CCN1CCCC1)(c1ccccc1)C1CCCCC1` (centres undefined) [Procyclidine HCl]: the “secreted FVIII-Gluc luciferase Z-score” value is inactive: -1.64.

Turning to `C=CC(=O)N1CCC[C@@H](n2nc(-c3ccc(Oc4ccccc4)cc3)c3c(N)ncnc32)C1`, the “secreted FVIII-Gluc luciferase Z-score” value was inactive: -1.06.

On to `CCn1cc(C(=O)O)c(=O)c2cc(F)c(N3CCNCC3)nc21` [Enoxacin (Penetrex)], for which the “secreted FVIII-Gluc luciferase Z-score” value is inactive: -1.17.

`CCCNC(C)C(=O)Nc1c(C)csc1C(=O)OC` (centres undefined) [Articaine HCl]: the “secreted FVIII-Gluc luciferase Z-score” value was inactive: -1.25.

Turning to `C[C@H](CCC(=O)O)[C@H]1CC[C@H]2[C@@H]3[C@@H](O)C[C@@H]4C[C@H](O)CC[C@]4(C)[C@H]3CC[C@]12C` [Ursodiol (Actigal Urso)], the “secreted FVIII-Gluc luciferase Z-score” value is inactive: 0.532.

In the case of `O[C@@H]1CO[C@H]2[C@@H]1OC[C@@H]2O` [Isosorbide], the “secreted FVIII-Gluc luciferase Z-score” value was inactive: 0.783.

Regarding `N=C(N)c1ccc(OCCCCCOc2ccc(C(=N)N)cc2)cc1` [Pentamidine], the “secreted FVIII-Gluc luciferase Z-score” value is inactive: -1.45.
